Source: the ROBIN nucleic acid binder screens (doi:10.1002/anie.202211358).

Targets, with sequences 5′ to 3′:
SAM-II: SAM-II riboswitch RNA pseudoknot, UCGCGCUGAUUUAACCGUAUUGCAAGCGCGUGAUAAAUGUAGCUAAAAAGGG. About 200 hits among about 21,000 compounds.
TPP: TPP riboswitch RNA three-way junction, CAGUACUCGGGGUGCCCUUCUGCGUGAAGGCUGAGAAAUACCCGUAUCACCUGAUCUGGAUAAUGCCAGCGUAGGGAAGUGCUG. About 160 hits among about 24,000 compounds.
PreQ1: PreQ1 riboswitch RNA pseudoknot, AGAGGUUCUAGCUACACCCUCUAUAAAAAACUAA. From B. subtilis. About 170 hits among about 24,000 compounds.

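Compounds were printed on reactive glass slides in duplicate spots, a dye-labelled oligonucleotide was laid over them, and the fluorescence left after washing was read. For the PreQ1, TPP and SAM-II riboswitches the laboratory earlier reported (doi:10.1038/s41467-019-09493-3) 1 µM RNA, 2 h, and a rule that included a mean Z-score above 3 (spot signal-to-noise against the whole library), a score well above that on a control array, and duplicate spots agreeing (coefficient of variation under 100). The data file gives only the calls; its cut-offs may differ, and compounds hitting several targets are kept. A missing hit is not proof of no binding, and a hit is not a measured affinity.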 “1” means called a hit, “0” means screened and not called a hit. The compounds are a random part of those screened. A dash means that no call is listed here.

Compound	SAM-II	TPP	PreQ1
CCCCCCCCCCCCC(NC(C)=O)(C(=O)OCC)C(=O)OCC	0	0	0
Cc1cc(Nc2ccc(N(C)C)cc2)n2nc(Cc3ccccc3)nc2n1	-	0	0
CCNCc1nonc1C	0	0	0
O=NN(CCCl)C(=O)NC1CCCCC1	0	0	0
COc1ccc(C)cc1Nc1nc(C)nc2c1CCC2	-	0	0
Cc1ccc2c(c1)SC(=Cc1ccc[n+](C)c1)N2CCO	0	0	0
CSc1ccc(CNc2cc(C)nc(N)n2)cc1	0	0	0
Cc1cc2c(c(=O)n1C)C1(C(=O)Nc3ccccc31)C(C#N)=C(N)O2 (stereo not drawn)	0	0	0
COc1ccc(C(O)Cn2c(=N)n(C)c3ccccc32)cc1.Cl (stereo not drawn)	0	0	0
O=C(COCC1CCCCO1)N1CCN(Cc2ccccc2CO)CC1 (stereo not drawn)	0	0	0
Cc1nc(C(=O)N2CCC3(CC2)Nc2ccccc2NC3=O)cs1	0	0	0
Oc1ccc([C@@H]2Oc3ccc(O)cc3[C@@H]3CCC[C@@H]32)cc1	0	0	0
COc1ccc(Br)c2c1C(=O)CC2	0	0	0
CCOC(=O)CNc1nc2ccccc2n2c(C)nnc12	0	0	0
CCOC(=O)N1CCC(N2C(=O)c3ccccc3C2Nc2ccc(CC)cc2)CC1 (stereo not drawn)	0	0	0
CC1(N2CCC(n3c([C@@H]4CCCNC4)nc4ccccc43)CC2)CCCCCCC1	0	0	0
OCc1ccccc1-c1nnnn1-c1ccccc1	0	0	0
CCC(CO)N(Cc1cccnc1)C(=O)Nc1ccc(-c2nnn(C)n2)cc1 (stereo not drawn)	0	0	0
COc1ccccc1Nc1ncc(C(=O)N2CCN(c3ccccc3OC)CC2)c2ccccc12	0	0	0
Clc1cc2c(nn1)Nc1ccccc1S2	0	0	0
CCOC(=O)c1c(C)oc2ncnc(Nc3cccc(Cl)c3)c12	0	0	0
CCCCc1nc2sc3c(NCCCO)ncnc3c2c2c1COC(C)(C)C2	0	0	0
O=C(c1ccc2cccc(F)c2n1)N(CCO)Cc1ccccc1Cl	0	0	0
COc1cccc(N2CC(c3nc4ccccc4n3CC(O)COc3ccc(C)cc3)CC2=O)c1 (stereo not drawn)	-	0	0
CN(C(=O)c1ccc(F)cc1C(F)(F)F)C1CCN(c2nnc(-c3ccnn3C)c3ccccc23)CC1	0	0	0
Nc1nonc1N=Cc1ccccc1O	0	0	0
O=S(=O)(NCC(Nc1ccc(Br)cc1)c1ccccc1)c1ccccc1 (stereo not drawn)	-	0	0
Cc1cccn2c(Nc3ccccc3)c(-c3ccccn3)nc12	0	0	0
CCOCC(O)Cn1ccnc1-c1c(OC)ccc(F)c1F (stereo not drawn)	0	0	0
CCOc1cc(N)c(Cl)cc1C(=O)NCC1CN(Cc2ccc(F)cc2)CCO1 (stereo not drawn)	0	0	0
CCOC(=O)c1c(N)nn(C(=O)C(C)(C)C)c1-c1ccccc1	0	0	0
c1nc(NCC2CNCCOC2)c2ccsc2n1 (stereo not drawn)	0	0	0
Cc1ccc([C@H]2C[C@@H](C(F)(F)F)n3ncc(C(=O)Nc4cccc(C(C)O)c4)c3N2)cc1 (stereo partly drawn)	0	0	0
NCC1(c2ccc(Cl)cc2)CC1	0	0	0
CN(C)C(=O)c1ccc(S(=O)(=O)c2ccc(NC(=O)[C@@](C)(O)C(F)(F)F)c(Cl)c2)cc1	0	0	0
Cc1cccc(NC(=O)Cn2nnc(C(=O)NCCc3ccccc3)c2N)c1	0	0	0
CNc1oc(-c2ccccc2Cl)nc1S(=O)(=O)c1ccc(F)cc1	-	0	0
Cc1cc2nn(-c3ccc(F)cc3)nc2c(Br)c1N	0	0	0
O=C(NCCO)C(=O)NC1CCCCC1	0	0	0
N#Cc1ccccc1N1C(=O)C2C3C=CC(CO)(O3)C2C1=O (stereo not drawn)	0	0	0
CCNC(=O)Cc1ccc(-c2cc(Cl)c3c(c2)CC(CN)O3)cc1 (stereo not drawn)	0	1	1
COc1ccc(CNc2nc3ccc(C)cc3cc2-c2noc(C)n2)cc1OC	-	0	0
Cn1c(CNc2ccc(Br)cc2)nc2ccccc21	0	0	0
CCOC(=O)c1ccc2nc(C(F)(F)F)nc(NCCc3ccc(OC)c(OC)c3)c2c1	0	0	0
COc1cnc(N2C[C@H](C(C)C)[C@@H](N)C2)nc1	0	0	0
CCCCC1C(=O)N(C)CCN1C[C@H]1CC[C@@H](N)CC1 (stereo partly drawn)	0	0	0
Nc1nc(NCCNc2ncc(-n3ccnc3)c(-c3ccc(Cl)cc3Cl)n2)ccc1[N+](=O)[O-]	0	0	0
CN(CC1COc2ccccc2O1)C(=O)c1ccc(N(C)CCO)nc1 (stereo not drawn)	0	0	0
O=C(OCCNC1=NS(=O)(=O)c2ccccc21)c1cccc(Br)c1	0	0	0
COc1ccccc1Nc1c2c(nc3ccccc13)CCC2	0	0	0
CCOC(=O)c1ncn(CCc2ccccc2)c1N	0	0	0
Cc1nnc2c(NCCCN3CCC(Cc4ccccc4)CC3)nc3ccccc3n12	-	0	0
COc1cccc([C@@H]2C[C@H](c3ccc(Cl)cc3)n3nc(N)nc3N2)c1	0	0	0
Cc1cc(NC(=O)NCCN2CCCCC2CO)n(CC(C)C)n1 (stereo not drawn)	0	0	0
O=C(NCc1cc2n(n1)CCNC2)c1cnc(N2CCOCC2)nc1	0	0	0
Cc1nc(Nc2nc(O)c3ccccc3n2)nc2c(C)cccc12	0	0	0
N#CC1=C(N)Oc2c(c(=O)oc3ccccc23)C1c1ccc2c(c1)OCO2 (stereo not drawn)	0	0	0
COC(=O)c1ccccc1NC(NC(=O)c1ccco1)C(=O)c1ccccc1 (stereo not drawn)	0	0	0
NC(=O)CSc1nc2ccccc2n1CCO	0	0	0
Nc1ccnn1-c1ccccc1	0	0	0
CCN(CC)C(=O)[C@@H]1C[C@H](N)CN1Cc1c(C)noc1C	0	0	0
CNCC(=O)Nc1nn(-c2ccc(F)cc2)c2cccc(Oc3cccnc3)c12	0	0	0
Cc1c(CO)c2ccccc2n1Cc1ccccc1	0	0	0
Cc1cc(N2CCN(S(=O)(=O)c3ccccc3F)CC2)nc(NC2CCCCC2)n1	-	0	0
CN1CC(=Cc2ccc(F)cc2)C2=C(C1)C(c1ccc(F)cc1)C(C#N)=C(N)O2 (stereo not drawn)	0	0	0
CCc1cc(Nc2ccc(C)cc2Cl)n2ncnc2n1	0	0	0

For reference, 5 entries once more:

Compound,SAM-II,TPP,PreQ1
Cc1cc2c(c(=O)n1C)C1(C(=O)Nc3ccccc31)C(C#N)=C(N)O2 (stereo not drawn),0,0,0
CCc1cc(Nc2ccc(C)cc2Cl)n2ncnc2n1,0,0,0
COC(=O)c1ccccc1NC(NC(=O)c1ccco1)C(=O)c1ccccc1 (stereo not drawn),0,0,0
Cc1cc(N2CCN(S(=O)(=O)c3ccccc3F)CC2)nc(NC2CCCCC2)n1,-,0,0
Nc1nc(NCCNc2ncc(-n3ccnc3)c(-c3ccc(Cl)cc3Cl)n2)ccc1[N+](=O)[O-],0,0,0